# Data taken from the supplement of paper PMC11732987, “Enantioselective OTUD7B fragment discovery through chemoproteomics screening and high-throughput optimisation” (Communications Chemistry, 2025).
# By UniProt entry, the sequences of proteins in these tests, tags left out. Where a name states a change or a piece, a line headed by the entry shows the natural chain unless it says otherwise. Residues count along the entry.
# UniProt Q14204, whole entry, looked up: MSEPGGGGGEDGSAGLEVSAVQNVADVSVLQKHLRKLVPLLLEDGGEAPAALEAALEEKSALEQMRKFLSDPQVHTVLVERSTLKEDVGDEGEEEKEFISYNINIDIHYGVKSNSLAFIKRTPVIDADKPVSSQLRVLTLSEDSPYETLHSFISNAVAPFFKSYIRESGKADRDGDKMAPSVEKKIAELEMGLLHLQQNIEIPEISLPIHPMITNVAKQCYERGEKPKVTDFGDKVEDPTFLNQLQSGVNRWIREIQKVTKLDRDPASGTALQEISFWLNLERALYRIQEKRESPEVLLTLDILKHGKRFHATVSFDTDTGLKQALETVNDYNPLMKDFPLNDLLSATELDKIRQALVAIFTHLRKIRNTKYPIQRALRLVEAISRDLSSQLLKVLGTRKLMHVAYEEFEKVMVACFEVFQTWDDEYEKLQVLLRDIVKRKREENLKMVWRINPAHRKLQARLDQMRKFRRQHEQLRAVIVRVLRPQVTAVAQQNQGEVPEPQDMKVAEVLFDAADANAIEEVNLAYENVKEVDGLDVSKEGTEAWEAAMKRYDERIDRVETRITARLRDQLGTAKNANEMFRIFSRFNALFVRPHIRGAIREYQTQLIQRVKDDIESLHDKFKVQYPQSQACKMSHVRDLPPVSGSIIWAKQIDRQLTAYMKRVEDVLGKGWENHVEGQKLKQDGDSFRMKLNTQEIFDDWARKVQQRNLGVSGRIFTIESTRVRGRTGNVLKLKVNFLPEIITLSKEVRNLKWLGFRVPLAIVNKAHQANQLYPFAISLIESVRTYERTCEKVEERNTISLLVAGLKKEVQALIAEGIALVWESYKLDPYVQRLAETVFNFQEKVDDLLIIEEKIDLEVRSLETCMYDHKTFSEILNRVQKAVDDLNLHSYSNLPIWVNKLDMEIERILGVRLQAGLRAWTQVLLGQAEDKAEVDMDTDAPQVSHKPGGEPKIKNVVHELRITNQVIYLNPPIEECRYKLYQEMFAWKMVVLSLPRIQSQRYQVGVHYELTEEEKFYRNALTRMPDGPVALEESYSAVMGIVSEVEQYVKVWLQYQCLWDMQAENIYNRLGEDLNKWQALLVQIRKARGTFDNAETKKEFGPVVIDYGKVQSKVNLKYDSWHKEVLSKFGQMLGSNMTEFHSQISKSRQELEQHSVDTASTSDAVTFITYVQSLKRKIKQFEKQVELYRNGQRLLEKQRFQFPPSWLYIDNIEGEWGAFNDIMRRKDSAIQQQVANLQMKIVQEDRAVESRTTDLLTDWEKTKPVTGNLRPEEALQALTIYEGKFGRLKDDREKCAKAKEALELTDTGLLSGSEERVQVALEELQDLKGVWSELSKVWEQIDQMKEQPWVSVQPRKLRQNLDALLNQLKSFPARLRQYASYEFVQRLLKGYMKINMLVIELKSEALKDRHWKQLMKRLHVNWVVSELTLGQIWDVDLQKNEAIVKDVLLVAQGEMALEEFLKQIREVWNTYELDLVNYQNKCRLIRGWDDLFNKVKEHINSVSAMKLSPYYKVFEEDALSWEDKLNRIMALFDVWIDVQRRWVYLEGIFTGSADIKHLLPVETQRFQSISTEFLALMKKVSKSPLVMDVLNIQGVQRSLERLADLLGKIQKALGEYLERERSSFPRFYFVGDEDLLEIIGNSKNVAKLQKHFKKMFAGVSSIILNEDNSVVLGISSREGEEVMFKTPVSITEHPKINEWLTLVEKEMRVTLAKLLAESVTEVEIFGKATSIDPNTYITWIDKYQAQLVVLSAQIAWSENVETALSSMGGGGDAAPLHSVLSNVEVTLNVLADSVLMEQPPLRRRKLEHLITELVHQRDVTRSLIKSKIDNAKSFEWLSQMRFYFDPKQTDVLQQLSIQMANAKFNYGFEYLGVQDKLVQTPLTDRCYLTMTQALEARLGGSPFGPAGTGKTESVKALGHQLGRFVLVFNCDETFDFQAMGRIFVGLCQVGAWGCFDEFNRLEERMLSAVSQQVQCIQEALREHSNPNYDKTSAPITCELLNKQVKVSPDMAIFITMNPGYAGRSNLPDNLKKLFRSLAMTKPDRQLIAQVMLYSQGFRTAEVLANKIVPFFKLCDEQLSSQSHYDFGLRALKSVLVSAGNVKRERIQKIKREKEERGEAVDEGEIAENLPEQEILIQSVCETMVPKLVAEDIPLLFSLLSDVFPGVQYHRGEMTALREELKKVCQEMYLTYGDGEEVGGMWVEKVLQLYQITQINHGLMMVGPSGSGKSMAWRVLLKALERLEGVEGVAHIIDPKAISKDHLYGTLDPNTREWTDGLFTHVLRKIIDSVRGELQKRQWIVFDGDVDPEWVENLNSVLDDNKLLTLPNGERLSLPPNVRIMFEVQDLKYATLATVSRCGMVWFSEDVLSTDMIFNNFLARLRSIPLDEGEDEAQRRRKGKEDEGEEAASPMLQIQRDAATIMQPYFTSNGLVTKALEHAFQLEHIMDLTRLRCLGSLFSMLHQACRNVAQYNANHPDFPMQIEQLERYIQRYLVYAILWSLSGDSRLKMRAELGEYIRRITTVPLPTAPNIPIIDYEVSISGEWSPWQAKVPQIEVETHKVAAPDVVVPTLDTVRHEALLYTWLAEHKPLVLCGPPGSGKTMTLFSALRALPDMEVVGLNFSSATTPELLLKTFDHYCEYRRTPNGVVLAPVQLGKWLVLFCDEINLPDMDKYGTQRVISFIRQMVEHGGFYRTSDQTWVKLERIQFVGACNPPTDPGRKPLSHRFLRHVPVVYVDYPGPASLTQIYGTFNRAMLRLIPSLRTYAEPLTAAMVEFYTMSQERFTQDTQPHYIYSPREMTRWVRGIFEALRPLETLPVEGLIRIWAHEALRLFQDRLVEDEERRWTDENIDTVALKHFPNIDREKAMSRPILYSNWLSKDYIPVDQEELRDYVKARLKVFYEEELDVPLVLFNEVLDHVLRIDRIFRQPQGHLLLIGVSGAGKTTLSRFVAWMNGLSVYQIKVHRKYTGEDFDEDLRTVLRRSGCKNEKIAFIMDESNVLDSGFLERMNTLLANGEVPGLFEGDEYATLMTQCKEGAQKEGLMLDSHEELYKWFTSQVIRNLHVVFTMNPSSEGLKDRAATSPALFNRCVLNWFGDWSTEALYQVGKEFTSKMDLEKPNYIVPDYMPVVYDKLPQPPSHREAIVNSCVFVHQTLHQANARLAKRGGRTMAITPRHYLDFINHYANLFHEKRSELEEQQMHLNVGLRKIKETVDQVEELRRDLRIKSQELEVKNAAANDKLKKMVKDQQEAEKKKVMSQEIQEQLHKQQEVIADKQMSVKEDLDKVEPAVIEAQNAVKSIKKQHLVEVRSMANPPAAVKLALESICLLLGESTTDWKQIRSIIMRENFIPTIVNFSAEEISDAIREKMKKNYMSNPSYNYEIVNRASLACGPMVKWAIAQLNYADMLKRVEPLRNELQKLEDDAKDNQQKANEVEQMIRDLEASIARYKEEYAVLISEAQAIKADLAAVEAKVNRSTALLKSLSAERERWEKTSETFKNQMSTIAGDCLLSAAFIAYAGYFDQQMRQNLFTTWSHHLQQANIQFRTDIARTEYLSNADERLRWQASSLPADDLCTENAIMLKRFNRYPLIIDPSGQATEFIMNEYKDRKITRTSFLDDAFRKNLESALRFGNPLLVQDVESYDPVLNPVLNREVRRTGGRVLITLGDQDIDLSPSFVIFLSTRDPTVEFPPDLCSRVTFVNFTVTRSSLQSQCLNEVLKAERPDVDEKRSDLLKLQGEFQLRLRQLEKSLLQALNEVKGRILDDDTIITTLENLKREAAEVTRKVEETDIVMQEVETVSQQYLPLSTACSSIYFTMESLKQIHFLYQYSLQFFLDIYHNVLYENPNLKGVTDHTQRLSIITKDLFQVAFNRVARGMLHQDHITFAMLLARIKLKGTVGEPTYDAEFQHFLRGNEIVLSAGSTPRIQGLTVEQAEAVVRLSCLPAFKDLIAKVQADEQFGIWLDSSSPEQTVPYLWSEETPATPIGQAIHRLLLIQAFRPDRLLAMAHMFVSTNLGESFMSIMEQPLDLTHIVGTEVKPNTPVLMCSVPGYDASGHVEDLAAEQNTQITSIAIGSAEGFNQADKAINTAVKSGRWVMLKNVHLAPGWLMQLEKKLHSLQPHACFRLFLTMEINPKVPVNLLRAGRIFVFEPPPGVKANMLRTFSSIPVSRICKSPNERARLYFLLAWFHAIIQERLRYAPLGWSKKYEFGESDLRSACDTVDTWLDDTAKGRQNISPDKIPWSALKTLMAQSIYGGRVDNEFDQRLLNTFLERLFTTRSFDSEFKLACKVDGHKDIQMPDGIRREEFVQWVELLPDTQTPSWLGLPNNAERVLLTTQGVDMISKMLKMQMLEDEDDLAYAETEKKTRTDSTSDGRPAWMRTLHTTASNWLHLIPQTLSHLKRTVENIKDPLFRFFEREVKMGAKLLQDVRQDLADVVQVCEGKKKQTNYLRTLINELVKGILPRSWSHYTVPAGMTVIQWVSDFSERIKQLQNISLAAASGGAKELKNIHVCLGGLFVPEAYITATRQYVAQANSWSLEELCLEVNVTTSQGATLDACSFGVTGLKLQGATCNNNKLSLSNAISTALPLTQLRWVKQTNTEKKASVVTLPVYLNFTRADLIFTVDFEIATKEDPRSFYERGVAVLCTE
# UniProt Q14204, 2185-2206: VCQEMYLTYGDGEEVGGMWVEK
# UniProt O95905: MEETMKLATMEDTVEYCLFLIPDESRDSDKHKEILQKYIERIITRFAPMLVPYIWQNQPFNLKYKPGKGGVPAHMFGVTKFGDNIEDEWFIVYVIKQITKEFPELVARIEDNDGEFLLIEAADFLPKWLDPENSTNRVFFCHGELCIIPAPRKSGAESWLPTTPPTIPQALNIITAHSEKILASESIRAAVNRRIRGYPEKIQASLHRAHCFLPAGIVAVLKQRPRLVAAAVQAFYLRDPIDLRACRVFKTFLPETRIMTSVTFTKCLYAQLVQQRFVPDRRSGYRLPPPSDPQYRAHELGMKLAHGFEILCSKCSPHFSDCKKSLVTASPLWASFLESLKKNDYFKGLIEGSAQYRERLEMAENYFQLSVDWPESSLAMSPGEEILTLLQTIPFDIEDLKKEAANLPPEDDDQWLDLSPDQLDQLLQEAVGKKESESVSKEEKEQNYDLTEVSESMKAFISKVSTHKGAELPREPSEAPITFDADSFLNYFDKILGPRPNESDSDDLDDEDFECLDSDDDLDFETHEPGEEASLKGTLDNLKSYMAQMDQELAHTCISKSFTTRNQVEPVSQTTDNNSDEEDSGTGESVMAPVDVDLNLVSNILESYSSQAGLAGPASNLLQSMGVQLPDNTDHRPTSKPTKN
# UniProt P05198, whole entry, looked up: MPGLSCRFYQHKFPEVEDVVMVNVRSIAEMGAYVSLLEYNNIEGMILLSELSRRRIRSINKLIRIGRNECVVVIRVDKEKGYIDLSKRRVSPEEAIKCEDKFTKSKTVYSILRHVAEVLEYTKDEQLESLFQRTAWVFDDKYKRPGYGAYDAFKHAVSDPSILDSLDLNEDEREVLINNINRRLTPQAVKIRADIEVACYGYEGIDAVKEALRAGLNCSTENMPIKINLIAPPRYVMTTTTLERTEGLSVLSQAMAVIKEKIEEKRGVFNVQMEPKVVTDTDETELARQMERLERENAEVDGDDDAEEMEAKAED
# UniProt P55010, whole entry, looked up: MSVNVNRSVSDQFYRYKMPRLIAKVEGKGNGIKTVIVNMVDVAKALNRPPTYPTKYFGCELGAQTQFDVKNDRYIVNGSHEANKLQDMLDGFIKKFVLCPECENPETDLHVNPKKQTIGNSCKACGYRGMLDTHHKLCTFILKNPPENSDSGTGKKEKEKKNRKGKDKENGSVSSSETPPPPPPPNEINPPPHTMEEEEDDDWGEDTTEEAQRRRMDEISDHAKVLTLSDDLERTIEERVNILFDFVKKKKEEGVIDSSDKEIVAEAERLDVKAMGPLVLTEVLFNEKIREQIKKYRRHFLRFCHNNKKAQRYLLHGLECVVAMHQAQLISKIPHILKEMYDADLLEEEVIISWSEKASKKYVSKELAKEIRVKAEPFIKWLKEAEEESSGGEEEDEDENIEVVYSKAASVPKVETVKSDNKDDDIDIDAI
# UniProt Q8WTR2: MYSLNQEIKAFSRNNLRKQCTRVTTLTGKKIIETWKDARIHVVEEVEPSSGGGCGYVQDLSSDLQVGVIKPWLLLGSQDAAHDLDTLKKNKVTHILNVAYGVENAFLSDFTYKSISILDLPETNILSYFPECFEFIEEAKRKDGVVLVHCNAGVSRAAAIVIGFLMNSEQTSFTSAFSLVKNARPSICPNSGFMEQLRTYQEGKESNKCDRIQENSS
# UniProt Q9NZJ5, 802-823: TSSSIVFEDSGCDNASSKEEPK
# UniProt Q9UBQ5: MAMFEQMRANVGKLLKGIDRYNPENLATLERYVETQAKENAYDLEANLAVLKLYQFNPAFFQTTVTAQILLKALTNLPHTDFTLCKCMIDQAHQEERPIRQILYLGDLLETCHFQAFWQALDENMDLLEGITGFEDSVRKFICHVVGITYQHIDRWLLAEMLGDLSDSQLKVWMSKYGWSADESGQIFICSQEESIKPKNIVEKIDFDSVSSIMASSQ
# Some of the results follow. The data scatter; read single values as rough.
# Experiments:
# [1] = compound: ClCC(=O)N[C@@H]1CCCc2ccccc12; assay: log2 mean competition ratio of IA-DTB cysteine labelling (DMSO/compound) (log2 ratio); higher = stronger cysteine engagement by compound; details: treatment time: 4 h, cell line lysate: HEK293T
# Method: (§1)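 IA-DTB competitive cysteine chemoproteomics in HEK293T RIPA lysate. Lysates were treated with compound 29 or 30 at 50 or 200 µM for 4 h, then IA-DTB (500 µM, 1 h), trypsin-digested, NeutrAvidin-enriched and analysed by diaPASEF. Competition ratio = intensity DMSO / intensity compound (n=4 treated, n=64 DMSO); binding: mean log2 CR ≥ 1 and p ≤ 0.05 plus QC filters. Target is the cysteine site.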
# [2] = compound: ClCC(=O)N[C@H]1CCCc2ccccc12; assay: as above; details: treatment time: 4 h, cell line lysate: HEK293T
# Method: as §1
Target,log2 mean competition ratio ([1]; 50 µM),log2 mean competition ratio ([1]; 200 µM),log2 mean competition ratio ([2]; 50 µM),log2 mean competition ratio ([2]; 200 µM)
EEF2 C41 (UniProt P13639),-0.0511,-0.251,-0.0231,0.0688
EIF3C C79 (UniProt Q99613),-0.00255,-0.105,-0.188,0.0586
EIF3A C58 (UniProt Q14152),-0.463,0.0655,-0.884,-0.0863
EFL1 C38 (UniProt Q7Z2Z2),-0.105,-0.0129,-0.125,-0.143
DYNC1H1 C4570 (UniProt Q14204),0.152,0.0105,0.0985,-0.048
DYNC1H1 C792 (UniProt Q14204),0.0721,0.0697,-0.244,-0.128
ECD C312 (UniProt O95905),0.33,0.333,-1.35,0.192
EIF2S1 C218 (UniProt P05198),0.0692,-0.0582,-0.119,-0.135
DSP C1855 (UniProt P15924),-0.269,0.38,-0.198,-0.171
DTX3L C309 (UniProt Q8TDB6),0.269,0.18,-0.136,0.466
EDRF1 C882 (UniProt Q3B7T1),-0.103,0.33,0.219,0.215
DSC3 C471,-0.265,0.26,-0.151,-0.104
EIF2S1 C70 (UniProt P05198),0.128,0.326,-0.455,0.151
DSG2 C840 (UniProt Q14126),-0.253,-0.077,-0.056,-0.0429
ECPAS C1257 (UniProt Q5VYK3),0.12,0.292,-0.185,0.35
DSP C1069 (UniProt P15924),0.183,0.246,-0.239,0.134
DYNC1H1 C2712 (UniProt Q14204),0.201,-0.00462,0.538,-0.116
EIF5 C122 (UniProt P55010),-0.15,0.0812,-0.19,0.177
EIF4G3 C982,0.214,0.147,0.223,0.103
EFNA5 C164,0.226,0.0585,0.462,0.12
DYNC1H1 C2186 (UniProt Q14204),-0.274,-0.338,-0.0822,-0.368
EEF2 C591 (UniProt P13639),-0.453,0.331,-0.384,0.367
DTNA C309,0.238,0.188,0.27,0.192
DUSP7 C54,-0.00394,-0.0281,-0.417,-0.0727
EIF3B C527,-0.178,-0.371,0.339,-0.239

Target,log2 mean competition ratio ([1]; 50 µM),log2 mean competition ratio ([1]; 200 µM),log2 mean competition ratio ([2]; 50 µM),log2 mean competition ratio ([2]; 200 µM)
DST C5394 (UniProt Q03001),0.204,0.286,0.15,0.169
EDC4 C510 (UniProt Q6P2E9),0.289,-0.471,0.441,-0.486
EFL1 C402 (UniProt Q7Z2Z2),0.0727,0.147,0.405,0.105
DST C5527 (UniProt Q03001),0.109,-0.424,-0.229,-0.274
EDC4 C976 (UniProt Q6P2E9),0.157,-0.0905,-0.284,-0.291
ECPAS C243 (UniProt Q5VYK3),-0.274,0.238,-0.00761,0.367
ECT2 C221 (UniProt Q9H8V3),0.00854,-0.155,-0.00267,-0.0958
DUS1L C146 (UniProt Q6P1R4),-0.104,-0.0407,0.312,-0.0217
E2F6 C26 (UniProt O75461),0.0575,0.141,-0.337,0.104
DUS2 C116 (UniProt Q9NX74),-0.0896,-0.33,-0.0715,-0.242
EEF2 C693 (UniProt P13639),-0.169,0.247,-0.329,0.296
DSTN C135 (UniProt P60981),-0.0205,-0.417,0.204,-0.366
DUSP19 C150 (UniProt Q8WTR2),-0.14,-0.133,0.0764,-0.262
DSP C1499 (UniProt P15924),-0.241,0.101,-0.235,-0.0419
DST C6799 (UniProt Q03001),-0.403,0.0265,-0.0317,-0.0366
EIF2AK3 C813 (UniProt Q9NZJ5),0.138,-0.155,0.0809,-0.102
DTX3L C219 (UniProt Q8TDB6),-0.205,0.206,0.0406,0.176
DST C3225 (UniProt Q03001),-0.0388,-0.0996,-0.283,-0.0411
DSC3 C57,-0.139,0.086,-0.294,-0.119
EIF3K C87 (UniProt Q9UBQ5),0.103,-0.1,-0.366,-0.208
DUSP11 C117,-0.169,-0.432,-0.338,-0.193
EIF5 C59 (UniProt P55010),0.117,-0.00642,0.357,-0.0969
EIF3G C139,-0.252,0.00142,-0.638,-0.0149
ELAC2 C670 (UniProt Q9BQ52),0.254,-0.00192,0.456,0.009
DUSP9 C27 (UniProt Q99956),-0.00897,0.44,-0.348,0.565

# Single values from the list:
# Under log2 mean competition ratio ([2]; 200 µM), EIF5 C122 (UniProt P55010) has the entry 0.177
# Under log2 mean competition ratio ([1]; 200 µM), EIF4G3 C982 has the entry 0.147
